Laboratory results reported in publication PMC7819943, “Rice protein-binding microarrays: a tool to detect cis-acting elements near promoter regions in rice”.
The list shows a part of the results.

These sequences were tested against T1, OsSMF1 (Oryza sativa, UniProt Q6ZLB0 1-436) (assay: protein-binding microarray (RPBM); PBS, 2% BSA, 51.3 ng/ul salmon testes DNA, 50 uM zinc acetate, 200 nM TF, 25 C, 1 h; high values mean tight binding). Settings: protein: recombinant; tags: N-terminal polyhistidine and DsRed monomer fusion (pET32a); chain copies: 2; label: CyDye5-dUTP incorporated in the synthesized complementary strand; 3' TTTTT single-stranded linker to array surface; dsDNA, one strand shown.
T1 sequence: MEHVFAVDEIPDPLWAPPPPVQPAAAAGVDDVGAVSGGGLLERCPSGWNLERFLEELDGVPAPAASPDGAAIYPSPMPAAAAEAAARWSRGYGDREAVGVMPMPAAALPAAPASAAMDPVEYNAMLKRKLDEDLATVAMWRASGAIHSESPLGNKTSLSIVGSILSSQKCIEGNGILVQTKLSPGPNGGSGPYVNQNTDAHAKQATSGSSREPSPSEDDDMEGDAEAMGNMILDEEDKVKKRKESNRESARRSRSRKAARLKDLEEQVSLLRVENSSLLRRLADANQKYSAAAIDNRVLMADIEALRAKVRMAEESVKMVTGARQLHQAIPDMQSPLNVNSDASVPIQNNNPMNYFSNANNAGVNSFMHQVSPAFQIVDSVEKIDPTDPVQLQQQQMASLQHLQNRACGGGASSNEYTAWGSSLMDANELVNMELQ
Method in brief: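 Per-feature fluorescence intensity (arbitrary units), read on an Axon 4000B scanner, is the binding signal. Transcription factors carrying an N-terminal polyhistidine tag and DsRed fusion were expressed in E. coli BL21-CodonPlus and purified on Ni–NTA. A custom Agilent array, made double-stranded by primer extension with Cy5-dUTP and blocked with 2% BSA, was incubated with 200 nM protein in PBS, 2% BSA, salmon testes DNA and 50 µM zinc acetate at 25 °C for 1 h and then washed.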

Sequence | binding signal
AGTGTAGTGGCTGGTAGGAAGAAGGAGAAGTAAGGGAGAGCGGAGTCACCTAGTGCAG | 31600 fluorescence intensity (a.u.)
CGGCCCAGTTGCCAGGCTCACGGACGTGTCTGCAGGTAGGCGGAGTCACCTAGTGCAG | 4570 fluorescence intensity (a.u.)
CTTGTACAGCTGTTTGAAGTCAGCAAATTGGAGTTATTTCCGGAGTCACCTAGTGCAG | 3540 fluorescence intensity (a.u.)
GGGCGCTACGGTTCACCGGCCGTCACTCAACTCCCACTTGCGGAGTCACCTAGTGCAG | 3520 fluorescence intensity (a.u.)
TAGGAAATTTTCCTATTTGGCCCTTTGATTCAAAGGATTGCGGAGTCACCTAGTGCAG | 3140 fluorescence intensity (a.u.)
ACAACAGCTTTATCGTTTGCTCTTCAGCTTATTAATTGTACGGAGTCACCTAGTGCAG | 36600 fluorescence intensity (a.u.)
AAATGCTCGTAGAGATAAGGTGCACACGTATGTGTTTTACCGGAGTCACCTAGTGCAG | 4120 fluorescence intensity (a.u.)
AAAGAGTGATTATGAGTCATTGTTACGAAGAATCTAGCATCGGAGTCACCTAGTGCAG | 3820 fluorescence intensity (a.u.)
GTCAAGGAGGAGTGCAAGGAAGGTCATGGCAACATCAACACGGAGTCACCTAGTGCAG | 3470 fluorescence intensity (a.u.)
ACAAGTTGACTCGTGACGACGGCGACTCCATCCGACCCACCGGAGTCACCTAGTGCAG | 3670 fluorescence intensity (a.u.)
AACCGAAACATAATTCCTCGCCCCATGCAGAACATGAAAACGGAGTCACCTAGTGCAG | 36300 fluorescence intensity (a.u.)
AGCAAGAACCGAGATTATCTGCATGTGACACGCCAACATTCGGAGTCACCTAGTGCAG | 4280 fluorescence intensity (a.u.)
GCAACACCAATGACTCAAGGCCCAAAAGGAATTGACGACCCGGAGTCACCTAGTGCAG | 3840 fluorescence intensity (a.u.)
GATTCGTTTCGTAATTTGCACGTAATTTACACGTAATCTGCGGAGTCACCTAGTGCAG | 6830 fluorescence intensity (a.u.)
CGCCTCCTCTTCTCCCAGCATCCACGTATAAATAAGCTCTCGGAGTCACCTAGTGCAG | 4490 fluorescence intensity (a.u.)
AGACAGTGAATGGCAGAGTCCAAGTCACACACACTACACTCGGAGTCACCTAGTGCAG | 4510 fluorescence intensity (a.u.)
ATTGTACTTTGCTAACACATCACGCACATAGCTACGGCTGCGGAGTCACCTAGTGCAG | 4760 fluorescence intensity (a.u.)
GTGTTGCCATACATGTTGACGTGGCATCACGATAAGGTGGCGGAGTCACCTAGTGCAG | 24300 fluorescence intensity (a.u.)
AAAAGGAGGGGAGGTGGATGACGATGTATCGTTCGCGTGTCGGAGTCACCTAGTGCAG | 4520 fluorescence intensity (a.u.)
TGTCCTTTGTAGCTTGGAGTCATCCGTTTTGACGTTCATGCGGAGTCACCTAGTGCAG | 3690 fluorescence intensity (a.u.)
AGGGTAAAATTAAATAGGCGAACCAACGATCTGATCACATCGGAGTCACCTAGTGCAG | 20700 fluorescence intensity (a.u.)

Sequence | binding signal
TGGGGTTACATGAGGAGGGAAGGAGAGGAACAGAGGGTCCCGGAGTCACCTAGTGCAG | 3730 fluorescence intensity (a.u.)
GGGGAAAGAGAGAGCAGACTGACGTGTCCACGTTGATATGCGGAGTCACCTAGTGCAG | 14000 fluorescence intensity (a.u.)
CTCGCATTTCCCAGCTCGGATCCTCTTCTGACTTCTCTCTCGGAGTCACCTAGTGCAG | 4360 fluorescence intensity (a.u.)
AAATTTTCAGAGAATGACTAAGGACAGCATGAAAGCTTGTCGGAGTCACCTAGTGCAG | 3390 fluorescence intensity (a.u.)
TTCCTTATATCTGACATATGTTCAAATGACGCATTATAGCCGGAGTCACCTAGTGCAG | 4120 fluorescence intensity (a.u.)
CGTCGGTCGCACCGCCGGTTCACGGGCCACGTATAGGAGTCGGAGTCACCTAGTGCAG | 4530 fluorescence intensity (a.u.)
GACAACCGAACACGTCGAGCCAGCGAATGATGAAACCCCACGGAGTCACCTAGTGCAG | 31800 fluorescence intensity (a.u.)
TGCTTTTATGACTGTTGGCATTGCCCTTGTCAGTTGGTTGCGGAGTCACCTAGTGCAG | 3860 fluorescence intensity (a.u.)
AATCACTTGGGGACAACGTGTCACCGCCTCCACCGGACAACGGAGTCACCTAGTGCAG | 4260 fluorescence intensity (a.u.)
ACTGTACATCCTTTAACTATATGTTGAGTTTGATTCACACCGGAGTCACCTAGTGCAG | 3660 fluorescence intensity (a.u.)
TGAGTCCTCGGCGAAGCCCGTGTGCCTGACACACTGACCACGGAGTCACCTAGTGCAG | 3560 fluorescence intensity (a.u.)
TGTCATGCCACGTTATATTTTGCTAAACTATCTCTATATACGGAGTCACCTAGTGCAG | 6760 fluorescence intensity (a.u.)
CTTTTCTCCGACCATCCTGACTCACCTGCCATTAAGGAAGCGGAGTCACCTAGTGCAG | 4680 fluorescence intensity (a.u.)
ATGACCGGAGATGGGTGGGGAGAAGGCTTGCAGCTGTCGACGGAGTCACCTAGTGCAG | 3320 fluorescence intensity (a.u.)
AAACTATGCAGAATCTGACTTGTCAATGATTCTCTGTTTCCGGAGTCACCTAGTGCAG | 3740 fluorescence intensity (a.u.)
ATGGCACAGTGTGACGGGAGACCCACCAGCCATTGGGCTGCGGAGTCACCTAGTGCAG | 3920 fluorescence intensity (a.u.)
GCACGAATCGTGAAGCAGATCCGACGGTCCTAGCAATCCGCGGAGTCACCTAGTGCAG | 20600 fluorescence intensity (a.u.)
TGGCAGCTTTGGCGCCACGCCAGCAATTTCTGCCTGTGGACGGAGTCACCTAGTGCAG | 9260 fluorescence intensity (a.u.)
GAGCTTCTGACTCATCTTTACTAGGAAGGGTCTTTTCAAGCGGAGTCACCTAGTGCAG | 39100 fluorescence intensity (a.u.)
TAAGTCAATTGTAATGACTATAGTACTGTACGGAGTAATTCGGAGTCACCTAGTGCAG | 3260 fluorescence intensity (a.u.)
TCCATGAGCCACGTGATATACTCTCTGTGTGTGTGTTTGCCGGAGTCACCTAGTGCAG | 5710 fluorescence intensity (a.u.)

Quoted from above (4 entries):
Sequence | binding signal
TGAGTCCTCGGCGAAGCCCGTGTGCCTGACACACTGACCACGGAGTCACCTAGTGCAG | 3560 fluorescence intensity (a.u.)
TGTCATGCCACGTTATATTTTGCTAAACTATCTCTATATACGGAGTCACCTAGTGCAG | 6760 fluorescence intensity (a.u.)
CTTTTCTCCGACCATCCTGACTCACCTGCCATTAAGGAAGCGGAGTCACCTAGTGCAG | 4680 fluorescence intensity (a.u.)
ATGACCGGAGATGGGTGGGGAGAAGGCTTGCAGCTGTCGACGGAGTCACCTAGTGCAG | 3320 fluorescence intensity (a.u.)
